Results: patent US5624894A (University of Florida, priority 1995, dated 1997)

Assay: general procedure: solution-phase peptide synthesis; DCC/HOBt
Details: coupling step

Row | Substance | step yield
1 | Boc-Ala-Pro-Gln-Leu-Pro-Gly-Cholesteryl Ester | 63.7%
2 | Nicotinoyl-Ala-Ala-Tyr(O-tBu)-Arg(.OMEGA.-Pmc)-Cholesteryl Ester | 71.6%
3 | Boc-Gln-Leu-Pro-Gly-Cholesteryl Ester | 38.64%
4 | Boc-Pro-Pro-Gln-Leu-Pro-Gly-cholesteryl Ester | 63.7%
5 | Boc-Ala-Gln-Leu-Pro-Gly-Cholesteryl Ester | 86.41%
6 | Boc-Ala-Ala-Gln-Leu-Pro-Gly-cholesteryl ester | 81.25%
7 | N-t-Boc-D-Ala-Gly-Phe-D-Leu-Cholesteryl Ester | 70%
8 | N-t-Boc-Ala-Tyr-D-Ala-Gly-Phe-D-Leu-Cholesteryl Ester | 81% yield
9 | Boc-Pro-Gln-Leu-Pro-Gly-Cholesteryl Ester | 84.7%

Same assay, conditions: late stage modification step

Row | Substance | step yield
10 | Nicotinoyl-Ala-Gln-Leu-Pro-Gly-Cholesteryl Ester | 75%
11 | Trigonellyl-Ala-Ala-Tyr(O-tBu)-Arg(.OMEGA.-Pmc)-Cholesteryl Ester Methylsulfate | approximately 100%
12 | Nicotinyl-Pro-Gln-Leu-Pro-Gly-Cholesteryl Ester | 69.6%
13 | Trigonellyl-Ala-Ala-Tyr-D-Ala-Gly-Phe-D-Leu-OH Methylsulfate | 39.7% yield
14 | 1,4-dihydrotrigonellyl-Ala-Tyr-D-Ala-Gly-Phe-D-Leu-Ethyl Ester | 72% yield
15 | Trigonellyl-Ala-Tyr-D-Ala-Gly-Phe-D-Leu-Cholesteryl Ester Methylsulfate | 68.5% yield
16 | Trigonellyl-Ala-Ala-Tyr-D-Ala-Gly-Phe-D-Leu-Cholesteryl Ester Methylsulfate | 63.5% yield
17 | Trigonellyl-Ala-Tyr-D-Ala-Gly-Phe-D-Leu-Ethyl Ester Methylsulfate | 65% yield
18 | Trigonellyl-Ala-Ala-Tyr-Arg-Cholesteryl Ester Methylsulfate | 76.9%
19 | Nicotinoyl-Ala-Pro-Gln-Leu-Pro-Gly-Cholesteryl Ester | 68%
20 | Nicotinoyl-Ala-Tyr-D-Ala-Gly-Phe-D-Leu-Cholesteryl Ester | 75% yield
21 | 1,4-Dihydrotrigonellyl-Ala-Tyr-D-Ala-Gly-Phe-D-Leu-OH | 25% yield
22 | Nicotinoyl-Pro-Pro-Gln-Leu-Pro-Gly-Cholesteryl Ester | 69.6%
23 | Nicotinoyl-Ala-Ala-Gln-Leu-Pro-Gly-Cholesteryl Ester | 39.25%

Same assay, conditions: late stage modification step, mass spectrum peak area

Row | Substance | final ms purity
24 | Trigonellyl-Ala-Ala-Tyr-Arg-Cholesteryl Ester Methylsulfate | peak area>90% of the total peak areas
